From publication PMC10954469, “Molecular and thermodynamic determinants of self-assembly and hetero-oligomerization in the enterobacterial thermo-osmo-regulatory protein H-NS” (Nucleic Acids Research, 2024)
Results are given in words; binding and its absence hold for the method and conditions named. Some entries that bind do so weakly or less than the wild type. Tags and fused reporters may be left off the sequences shown.

Columns and labels:
[1] = biological target: H-NS (histone-like or heat-stable nucleoid structuring protein), wild type (uropathogenic E. coli); assay: SEC; HiLoad 26/600 Superdex 200 pg, 15, 50, 100 and 200 μM protein, 300 mM ionic strength buffer (20 mM sodium phosphate plus NaCl), pH 7, 25°C; both purified
[2] = biological target: H-NS (histone-like or heat-stable nucleoid structuring protein), wild type (uropathogenic E. coli); assay: AUC + other: differential scanning calorimetry; thermodynamic model compared with AUC populations (20°C) and DSC curves (15-225 μM); 300 mM ionic strength, pH 7; both purified

B1: H-NS (histone-like or heat-stable nucleoid structuring protein), wild type (natural protein, uropathogenic E. coli)
chain: MSEALKILNNIRTLRAQARECTLETLEEMLEKLEVVVNERREEESAAAAEVEERTRKLQQYREMLIADGIDPNELLNSLAAVKSGTKAKRAQRPAKYSYVDENGETKTWTGQGRTPAVIKKAMDEQGKSLDDFLIKQ
notes: H-NS from uropathogenic E. coli, 137 residues as printed; Polydisperse in solution: monomers, dimers, tetramers and octamers; Expressed as H-NS:intein:CBD fusion; also called H-NS WT; wild-type H-NS; source: E. coli BL21(DE3), pTXB1 vector, purified (chitin column, intein cleavage, Superdex 200 SEC)
[1]
  binding: binds
[2]
  binding: binds
